Laboratory results published in publication doi:10.1101/2020.04.20.049957.
These are yes or no findings as the source states them, for the method shown. Binding seen in cells or lysates may run through a third protein. Binding calls can cover weak binding; strength is not graded here.

Chains of the proteins cited; added tags and fusions are not shown. Lines headed by an entry give the natural chain unless they say otherwise; changes in a name come on top. Residues count along the entry.
UniProt P56726: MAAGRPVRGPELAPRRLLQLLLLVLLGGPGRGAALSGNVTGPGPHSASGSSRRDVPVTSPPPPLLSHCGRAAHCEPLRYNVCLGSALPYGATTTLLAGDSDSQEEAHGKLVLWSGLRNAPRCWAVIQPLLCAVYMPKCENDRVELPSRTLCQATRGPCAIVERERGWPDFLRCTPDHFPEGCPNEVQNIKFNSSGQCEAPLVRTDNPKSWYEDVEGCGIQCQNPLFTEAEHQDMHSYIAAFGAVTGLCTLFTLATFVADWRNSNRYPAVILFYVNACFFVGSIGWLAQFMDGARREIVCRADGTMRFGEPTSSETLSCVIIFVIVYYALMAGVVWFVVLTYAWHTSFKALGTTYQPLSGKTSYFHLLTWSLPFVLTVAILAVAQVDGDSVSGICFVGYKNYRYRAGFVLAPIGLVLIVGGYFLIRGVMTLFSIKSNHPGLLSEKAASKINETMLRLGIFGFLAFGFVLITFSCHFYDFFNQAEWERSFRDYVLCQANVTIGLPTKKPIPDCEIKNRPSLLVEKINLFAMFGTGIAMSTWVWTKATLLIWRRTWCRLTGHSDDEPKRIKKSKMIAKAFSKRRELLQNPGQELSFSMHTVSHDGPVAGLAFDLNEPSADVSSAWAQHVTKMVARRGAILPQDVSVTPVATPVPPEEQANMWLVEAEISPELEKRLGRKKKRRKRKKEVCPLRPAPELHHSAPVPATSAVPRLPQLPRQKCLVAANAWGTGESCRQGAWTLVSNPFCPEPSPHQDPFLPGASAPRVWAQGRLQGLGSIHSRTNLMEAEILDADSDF
UniProt Q15363, residues 21-201: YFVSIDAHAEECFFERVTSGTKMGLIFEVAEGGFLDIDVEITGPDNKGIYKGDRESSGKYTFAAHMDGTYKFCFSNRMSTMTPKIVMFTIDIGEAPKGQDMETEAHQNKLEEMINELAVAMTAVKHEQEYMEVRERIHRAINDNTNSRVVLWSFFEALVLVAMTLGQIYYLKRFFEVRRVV

Columns and labels:
[1] = target: SMO variant without the cysteine-rich domain (CRD) (UniProt P56726); assay: pull-down
[2] = target: SMO variant without the C-terminal domain (CTD) (UniProt P56726); assay: pull-down

TMED2 (in 293T cells) (from UniProt Q15363 21-201)
binding [1]: binds
binding [2]: binds
